Values of other authors in patent US20170369677A1, “MATERIALS FREE OF ENDOCRINE DISRUPTIVE ACTIVITY” (CertiChem, Inc., priority 2006, published 2017).
Some of these results come from one statement about several compounds together. At least one compound was matched to its structure with a doubt left.

Tested on: ER

SMILES: Cc1cc(C(C)(C)C)c(O)c(C(C)(C)C)c1 [BHT, Butylated hydroxytoulene]
- RBAs: −4 to −5

SMILES: CC(C)(c1ccc(O)cc1)c1ccc(O)cc1 [Bisphenol A]
- RBAs: −4 to −5
